The other results are listed elsewhere or left out. The main result of the screen is listed elsewhere. These columns were measured beside it and carry no call. Most of these compounds were active or inconclusive in the main read-out, so they are no random draw. The note in brackets gives the kind of curve behind each potency; many fits are weak.
Experiment: qHTS Assay to Find Inhibitors of Chronic Active B-Cell Receptor Signaling
Conditions: ABC-DLBCL IkBa-CBG/CBR reporter, luminescence ratio (green luciferase fused to IkBa over red control in TMD8 lymphoma cells), 4 h
Outline: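 TMD8 human ABC-DLBCL cells with doxycycline-inducible IκBα–green luciferase fusion and unfused red luciferase, in 0.5% FBS medium; compounds up to 46 uM, 4 h at 37C. Green/red luminescence ratio, filter-overlap corrected, fitted to concentration-response curves.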

[1] = measured here: CBR red luminescence, cell number
[2] = measured here: IkBa-CBG green luminescence

Row | Structure (SMILES) | AC50 [1] | AC50 [2]
1 | Nc1c(C(=O)NCc2ccc3c(c2)OCO3)nnn1-c1ccc(OC(F)(F)F)cc1 | 0.00517 µM [falling, full curve, poor fit] | 
2 | Cc1ccc(C)c(S(=O)(=O)NCc2ccc(C(=O)N3CCC(Cc4ccccc4)CC3)cc2)c1 | 25.1 µM [falling, single point] | 
3 | Cc1cc(NC(=O)CN(C)C)c([N+](=O)[O-])cc1C | 35.5 µM [rising, single point] | 
4 | C#CC1(NC(=O)NC(C)C)CCCCC1 | 31.6 µM [rising, single point] | 
5 | Cc1nc2ccc(NC(=S)NCCCO)cc2nc1C | 0.112 µM [rising, full curve, poor fit] | 
6 | COc1ccccc1OCCOCCOc1ccccc1Cl | 0.58 µM [rising, full curve] | 
7 | Cc1ccc(NC(=S)NC(NC(=O)Cc2cccc3ccccc23)C(Cl)(Cl)Cl)cc1 (centres undefined) | 0.517 µM [falling, full curve, poor fit] | 
8 | CSc1ccc(CN2CCN(C3CCCC3)C(CCO)C2)cc1 (centres undefined) | 35.5 µM [falling, single point] | 
9 | CCc1nc(Nc2ccccc2)c2oc3ccccc3c2n1 | 0.708 µM [falling, full curve] | 
10 | CCOC(=O)c1c(NC(=O)CSc2nnnn2CC)sc(C)c1C | 15.8 µM [falling, single point] | 
11 | O=C(Nc1ccc(F)cc1)C1CCCN1S(=O)(=O)c1cccc2nsnc12 (centres undefined) | 0.251 µM [rising, full curve, poor fit] | 
12 | O=C(CCC(=O)N1CCSc2ccccc21)Nc1ccc(F)cc1 | 11.2 µM [falling, partial curve, poor fit] | 
13 | CCOC(=O)c1cc(C(C)(C)C)oc1CNC(=O)c1c(C)oc2c1CCCC2 | 18.4 µM [falling, partial curve, poor fit] | 29.1 µM [rising, partial curve, poor fit]
14 | Cc1ccc(NC(=O)CS(=O)CC(=O)Nc2ccc(N3CCOCC3)cc2)cc1Cl (centres undefined) | 31.6 µM [rising, single point] | 
15 | Cc1cc(Oc2ccc(=O)n(C)n2)nc(Oc2ccc(=O)n(C)n2)n1 | 3.66 µM [rising, single point] | 
16 | CS(=O)(=O)c1nc(-c2ccc(Br)cc2)cc(-c2ccccc2)c1C#N | 3.26 µM [falling, single point] | 
17 | O=C(O)/C=C/C(=O)c1ccc2c(c1)CCc1ccccc1-2 | 29.1 µM [falling, partial curve, poor fit] | 3.66 µM [rising, partial curve, poor fit]
18 | COc1cccc(OCCCOc2ccc([N+](=O)[O-])cc2Cl)c1 | 35.5 µM [rising, single point] | 
19 | Cc1ccc(-n2ncc3c(Nc4ccccc4C)ncnc32)cc1 | 35.5 µM [falling, single point] | 
20 | Cc1ccc2nc(NC(=O)CN3C(=O)C4CC=CCC4C3=O)sc2c1 (centres undefined) | 12.6 µM [falling, single point] | 
21 | O=C(Nc1cccc(Br)c1)c1ccc(CN2CCc3ccccc3C2)cc1 | 11.2 µM [falling, partial curve] | 
22 | Cc1ccc(-c2nnc(CSc3nnc(COc4ccccc4)n3-c3ccc(C)cc3)o2)cc1 | 35.5 µM [falling, single point] | 

Row | Structure (SMILES) | AC50 [1] | AC50 [2]
23 | Cc1nn(-c2ccccc2)c(C)c1C(=O)OCC(=O)NC(=O)NC1CCCC1 | 1.78 µM [falling, partial curve] | 
24 | Cc1occc1C(=O)N/N=C/C=C\c1ccccc1[N+](=O)[O-] | 11.2 µM [falling, partial curve] | 
25 | COc1ccc(CNC(=O)c2ccc3c(c2)NC(=O)C(C)S3)cc1 (centres undefined) | 0.562 µM [falling, partial curve, poor fit] | 
26 | CCC(=O)Nc1nonc1-c1nc2ccccc2n1Cc1ccccc1 | 16.4 µM [rising, single point] | 
27 | Cc1oc(CC(C)C)cc1C(=O)Nc1ccc(C(=O)O)cc1 | 8.91 µM [falling, partial curve] | 
28 | O=C(c1cc(-c2ccc(Cl)c(Cl)c2)on1)N1CCCCC1 | 2.51 µM [falling, full curve] | 
29 | O=c1c2ccccc2nc(-c2ccc(F)cc2)n1NCc1ccccc1O | 8.91 µM [falling, partial curve, poor fit] | 
30 | COc1ccccc1-c1cc(C(F)(F)F)nc(S(C)(=O)=O)n1 | 6.51 µM [falling, partial curve] | 5.17 µM [rising, partial curve, poor fit]
31 | COc1ccc(C2CC(c3ccccc3)=NN2c2ccc(S(N)(=O)=O)cc2)cc1OC (centres undefined) | 12.6 µM [falling, partial curve, poor fit] | 
32 | CSc1nc(O)c(Cc2ccccc2)c(=O)[nH]1 | 4.47 µM [falling, partial curve, poor fit] | 
33 | O=S(=O)(Nc1nc2ccccc2s1)c1ccc(Br)s1 | 11.6 µM [rising, partial curve, poor fit] | 
34 | CCN1CCN(CC(=O)n2c3c(c4ccccc42)CC(C)CC3)CC1 (centres undefined) | 29.1 µM [falling, single point] | 
35 | C/C=C(\C)C(=O)N1CC2(CC(c3cccc(NC(=O)CCCCC)c3)=NO2)C[C@@H]1C(N)=O (some centres undefined) | 15.8 µM [falling, single point] | 
36 | COC(=O)c1cc(-c2ccc(OC)c(OC)c2)c2c(=O)[nH]c(=O)n(C)c2n1 | 1.26 µM [rising, partial curve, poor fit] | 
37 | Cc1ccc(C(=O)O/N=C(\N)c2ccccn2)cc1Cl | 3.16 µM [falling, partial curve, poor fit] | 
38 | O=C(NCCc1ccccc1)c1ccc2c(c1)OCO2 | 5.01 µM [falling, partial curve] | 
39 | CC(=O)Nc1ccc(C(=O)N(C)C(C(=O)Nc2ccc(C)cc2)c2ccccn2)cc1 (centres undefined) | 13 µM [rising, partial curve, poor fit] | 
40 | CC1CCCCN1c1ccc(N)cc1C(N)=O (centres undefined) | 35.5 µM [falling, single point] | 
41 | CCC(C)c1ccc(NC(=S)NN2CCOCC2)cc1 (centres undefined) | 6.51 µM [rising, single point] | 
42 | CCC(CC)c1nnc(NC(=O)c2cc([N+](=O)[O-])ccc2N2CCCCC2)s1 | 0.103 µM [rising, full curve, poor fit] | 
43 | CC(C)C(OC(=O)c1ccccc1)c1nccc2ccccc12 (centres undefined) | 11.2 µM [rising, single point] | 
44 | CC1C(=O)CCN(C(C)(C)C)C1C (centres undefined) | 31.6 µM [rising, partial curve, poor fit] | 

Row | Structure (SMILES) | AC50 [1] | AC50 [2]
45 | CCCN(CC(=O)Nc1ccccc1C)C(=O)c1ccc(-c2ccc([N+](=O)[O-])cc2)o1 | 29.1 µM [rising, single point] | 18.4 µM [falling, partial curve, poor fit]
46 | CCC(C)c1ccc(NC(=O)C2=CC=CN3CCS(=O)(=O)N=C23)cc1 (centres undefined) | 1.46 µM [rising, full curve, poor fit] | 
47 | C/C(=N/NC(=O)c1ccco1)c1cccnc1 | 31.6 µM [falling, single point] | 
48 | CCOC(=O)C(=O)Nc1cc(C)on1 | 0.0316 µM [falling, full curve, poor fit] | 
49 | C/C(=N\Nc1nc(C)cc(-c2ccccc2)n1)c1ccc(C)o1 | 0.891 µM [rising, full curve, poor fit] | 
50 | CC1CCC(NC(=O)CSc2nncs2)CC1 (centres undefined) | 18.4 µM [rising, single point] | 
51 | CC1CCN(c2c([N+](=O)[O-])nn(-c3ccc4c(c3)OCCO4)[n+]2[O-])CC1 | 6.51 µM [rising, full curve, poor fit] | 
52 | CCCn1c(SCC(=O)N2CCN(c3ccccc3)CC2)nc2ccccc2c1=O | 0.82 µM [rising, partial curve, poor fit] | 
53 | C[C@H](CO)N1C[C@H](C)[C@H](CN(C)C(=O)Nc2ccc(F)cc2)Oc2ccc(NC(=O)NC3CCCCC3)cc2CC1=O | 0.0058 µM [rising, full curve, poor fit] | 
54 | Cc1ccccc1C(=O)Nc1ccc2c(c1)CCCN2C(=O)c1cccs1 | 1.26 µM [falling, full curve, poor fit] | 
55 | O=Cc1ccc(N2Cc3ccccc3C2)cc1 | 10 µM [rising, partial curve] | 
56 | COc1cccc(C(=O)NCCSc2ccc(Br)cc2)c1 | 35.5 µM [falling, single point] | 
57 | O=C(O)COc1ccc(Nc2ccccc2)cc1 | 12.6 µM [rising, partial curve, poor fit] | 
58 | Cc1ccc(C2(O)CN(c3ccccc3C)C3=[N+]2CCS3)cc1 (centres undefined) | 11.6 µM [falling, partial curve, poor fit] | 
59 | O=C(OCC(=O)N1CCCC1)c1c[nH]c2ccccc12 | 18.4 µM [falling, partial curve] | 
60 | O=C(CSc1nnc2ccc3ccccc3n12)c1ccc(F)cc1 | 9.2 µM [falling, partial curve] | 
61 | Cc1cc(C)n2c(SCC(=O)Nc3cc(S(=O)(=O)N(C)C)ccc3C)nnc2n1 | 13 µM [rising, partial curve] | 
62 | O=C(COc1ccc(Br)cc1)NCCCn1ccnc1 | 25.1 µM [rising, single point] | 
63 | O=C(N/N=C/c1ccc(OCc2ccc(F)cc2)cc1)c1ccccc1 | 20 µM [falling, partial curve, poor fit] | 
64 | CC(=O)c1cccc(NC(=O)COC(=O)c2ccc(S(C)(=O)=O)c([N+](=O)[O-])c2)c1 | 15.8 µM [falling, partial curve] | 28.2 µM [rising, partial curve, poor fit]

From compound 50 to 53, copied from above:
Row | Structure (SMILES) | AC50 [1] | AC50 [2]
50 | CC1CCC(NC(=O)CSc2nncs2)CC1 (centres undefined) | 18.4 µM [rising, single point] | 
51 | CC1CCN(c2c([N+](=O)[O-])nn(-c3ccc4c(c3)OCCO4)[n+]2[O-])CC1 | 6.51 µM [rising, full curve, poor fit] | 
52 | CCCn1c(SCC(=O)N2CCN(c3ccccc3)CC2)nc2ccccc2c1=O | 0.82 µM [rising, partial curve, poor fit] | 
53 | C[C@H](CO)N1C[C@H](C)[C@H](CN(C)C(=O)Nc2ccc(F)cc2)Oc2ccc(NC(=O)NC3CCCCC3)cc2CC1=O | 0.0058 µM [rising, full curve, poor fit] | 

— PubChem BioAssay AID493014 (National Center for Advancing Translational Sciences (NCATS), 2011)
